Data taken from PubChem BioAssay AID1347426 (Functional Genomics Laboratory (NCATS/FGL), 2020).
Among all 31,000 sequences or so, about 1,400 (4.5%) were called active.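 Rule for the calls: active = median seed-adjusted z-score above 1 or below -1; inactive = the rest.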 Some of the results follow.

Assay: Novel Modifiers of Survival Motor Neuron (SMN) Protein: Gene Identification via Genome-wide siRNA Screen;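 note: luminescence tracks full-length SMN protein made from the SMN2 reporter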
Conditions: HEK293T SMN2-luciferase reporter, siRNA knockdown, 72 h; actives lie on both sides
Method in brief: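 Luciferase signal, proportional to full-length SMN made from an SMN2 cDNA reporter in stable HEK293T cells, was read 72 h after siRNA reverse transfection. Values were expressed as MAD scores after non-targeting-control normalization and log10 conversion; seed analysis flagged off-targets.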

Sequence | median seed-adjusted z-score
GGUCUAUACUGUCCGACAATT against SLC30A7 | inactive: 0.0492
CAUCUAAUGUCACUACCGATT against NDST3 | inactive: 0.476
ACAGGAACCUUUUAUGCUUTT against IRF4 | inactive: -0.332
CUCUUAUGUUGGAUAUGUATT against USP14 | inactive: 0
GUCACUUCAUUGAAAUUCATT against STYXL1 | inactive: -0.311
GCCUCGACUUGUCUAUGGATT against PAPOLA | inactive: 0
GGCUUUCACCAGAUUCACATT against LYPLA1 | inactive: 0
ACCUGGAGGGUGACUAUUATT against JAG2 | inactive: -0.234
CCAUUGCUAAUGUGCCUAUTT against SAR1B | inactive: 0.693
AAAUCAAGAUUCUUACUGATT against TPM3 | inactive: 0.111
CUCUGAACCUGUCCCGAAATT against FLII | inactive: -0.353
GACCGAUCCAUAUCUGAUATT against OPA1 | inactive: -0.182
CGGUGGACGUGAGAGACUUTT against HSPB7 | inactive: -0.288
GGCAGUUGGUUGUAGAAGATT against COL4A3BP | inactive: 0.0391
CCAAGGAGAUUUUAUGUCUTT against TRIM60 | inactive: -0.201
GACGUGGAGUUGAUAAAGATT against DSC3 | inactive: 0.18
AGAGAAUCCAGGAUCAGAATT against CHIT1 | inactive: -0.578
GUGCGAAUGUUGCUGGUGATT against CCKBR | inactive: 0.314
GCAACAUCUGGAUCGUGAATT against TTLL3 | inactive: -0.194
GCAGAAUGCGCUCAAGUCATT against HOXD13 | inactive: 0.116
GCUUCACUUCCAACCCUUUTT against GPR61 | inactive: 0
GCUUUUAAUCGAUUCUCAUTT against ZNF431 | inactive: 0.00537

Sequence | median seed-adjusted z-score
GCUUCAGUCUGAGCCCAAATT against ZNF16 | inactive: 0
CACACAUGCUCUCCCACAGTT against DUX1 | inactive: -0.62
GGAUAGAGAGUCGACAGAATT against HELLS | inactive: 0.192
GGACGAUACUCUGACCGUUTT against SFRS5 | inactive: 0.346
GCGAUGAAAAGAAAAGUCATT against TPO | inactive: 0.894
CCCUUAAUAGAGAGAGUUATT against AADAT | inactive: 0.0891
GCUUAUCUCGGCAAUCAAATT against PAPPA2 | inactive: -0.173
CAUCAUCAACAGGACCUAUTT against GDPD3 | inactive: -0.0754
CACGAGCUAAAGUAAAAUATT against EGLN1 | active: 2.05
CUCCAGCUCUGAUUGUAUATT against ABHD14B | inactive: -0.175
GGGUGAAGUCUCUCAAGAATT against LLGL1 | active: -1.13
GGAGAUAAAUGGACGCAAUTT against MBNL1 | inactive: 0.658
GUACAACUCCCAUCCCUGATT against SLC5A9 | inactive: 0.15
CUAAGGACCUCAUAGUUGATT against NUMB | inactive: -0.599
GAGAGAAUGCUGAACUGGATT against KRT39 | inactive: 0.161
GACUCUUAGUUUUUCAAAATT against ISL2 | inactive: 0.392
UGGACAAAGUAGCAUGUUATT against KLF11 | inactive: 0.158
GACUUUACCUUUGAGUACUTT against ZNF407 | inactive: 0.00802
CCCUAUAAUCAGACAUUAATT against CTBS | inactive: 0.0442
CUCUAGUCGCGUCAAGUUUTT against NISCH | inactive: -0.0757
UACACCAAAUGGAUCAAGATT against TESSP5 | inactive: 0
GCAUCGACCUGUCCUCCAATT against ELFN2 | inactive: -0.0888

Sequence | median seed-adjusted z-score
GGAAGUCUACUCUCCUUUATT against ARL14 | inactive: 0.417
GCGGAGUACUUCAAGAACATT against SLC13A4 | inactive: 0.446
GCACUACGGACCAUAGUUATT against NRF1 | inactive: 0.608
GACCUUCACGACAAAGUAUTT against ALOXE3 | inactive: -0.504
GUAUCGGACAUGAUCCUCATT against RABGGTB | inactive: -0.856
GGCUAUACGAUUUACUCUATT against HTR7 | inactive: -0.0111
GACUGACAGGUGUCGCUUUTT against IKBKAP | inactive: -0.0316
GAAUGUCUCCAUCAAUACATT against TES | inactive: -0.698
GCACCUAUAAGGAUGGGAATT against CTSZ | inactive: -0.393
GAGCUGACCUUGAACGAGATT against CHGB | active: -1.29
CCAUUACGCAGAUUAAGUATT against EIF3I | inactive: -0.0445
GUCUCGUCGUUUUGAUGAATT against PRKCH | inactive: 0.761
CUACAUUGCUGGGACUAAUTT against RRM1 | active: -5.51
GCUUGAUGGUUCAACUCCATT against PMPCB | inactive: 0.507
GAAACUUGCUGGAUAUGAUTT against DGUOK | inactive: 0.0168
CCUGAACCGUAUAUCCUAUTT against HEXA | inactive: -0.551
CCUGAUCUGUGGAGAUGAATT against AR | inactive: -0.559
AUACUCUCCCAGAUUUUUATT against CDX2 | inactive: 0.23
GAAGAGUACUCAACAGGGUTT against NTNG1 | inactive: 0.0823
AGACCUGUCCAUUCGCUCATT against STAT6 | inactive: 0.28
GCCAGAAUCCUUUAGCAGUTT against CRTC1 | inactive: 0.00363
GGAAUGAUAUAAGCUGGAATT against SIGLEC7 | inactive: -0.296

Sequence | median seed-adjusted z-score
GGACGUGCAGGAUUAGUCATT against PARP15 | inactive: -0.332
GCACUUAGGUCAUAUGGGUTT against UNC13C | inactive: -0.136
GGGAUCAAACAAUAAGUUATT against RPGR | inactive: 0.1
GGGAGGCCGUGAGUAUCUATT against CBLC | inactive: -0.726
GGAUCAUAGUGCUGGCAAATT against ABCC6 | inactive: 0.108
CCAUUUCAGAUUAUCCGAATT against PTER | inactive: 0.75
GCCUAUUCCUAACUGAUCUTT against 2-Sep | inactive: 0.0349
UGAACUAAGCGAUAACAGATT against ANP32A | inactive: 0.377
GAGCUGCCCUGAGAAAGCATT against ZFP42 | inactive: -0.537
GAUGAUGAAUAGUAGUAUUTT against DLG1 | inactive: 0.0642
CGAAAUCAUUUUGCCGAGATT against KIF4A | inactive: -0.156
CGUGUACCUCAAGACCUAUTT against HIPK3 | inactive: -0.00424
GCACAUUGCUGAUUACCUATT against SLC27A2 | inactive: -0.647
GGCUCAACAUUGAAAUGCATT against TLE2 | inactive: 0.00566
AGCCCAUCACAAAACAAGATT against LILRA1 | inactive: -0.231
CCAUGCUUGCUGUUCAUUUTT against SELI | inactive: 0
UGAUGGAGCUUAUUGUCAATT against NEUROG2 | inactive: -0.366
CCAAGAAGCUUUACAUCCATT against MAOA | inactive: 0.665
GGAAGGAUUUAGAAGCCUATT against LIN28B | inactive: 0.407
GGUGGUACAAGAGAACGAATT against JARID2 | inactive: 0.115
GGAAGACCUUGUUCCGUAUTT against COG8 | inactive: 0.0438
CCAGCGAUAUGUUCAACUATT against SPINT2 | inactive: 0.00974

Sequence | median seed-adjusted z-score
CUAACUACCCAGACCCUUATT against MFRP | inactive: -0.209
GCUAUUGAAAGUACACCUATT against NARG1 | active: -1.02
AGCUAAAUCAAGGACCUCATT against DLX4 | inactive: -0.0473
GGCCUGGGAAGUGAACAAATT against FAAH | inactive: 0.373
CGACCGCUACUAUUAUGAATT against TSHZ1 | inactive: 0.526
AAAAGAGUAUCUUUGUUUUTT against NDUFB6 | inactive: -0.357
CCCUAAUAAGAUAAGGAAATT against RPP38 | inactive: 0.07
GUUAUUAUCUGCAUCUUUATT against NMUR1 | inactive: -0.265
GGAAGUACCUGGAACUGUATT against ADAM33 | inactive: -0.038
GGAUCUGUCUGAUCGAUUUTT against RBBP8 | inactive: 0.323
GAAGAUUUCUAACGACCCATT against OSGEP | inactive: 0.0178
GGAUCGGGUUUACUCAGAATT against ACTR6 | inactive: 0.189
GAGGCUACAAGGUCCGUUATT against FGFR1 | inactive: -0.562
GCAAGUUGGAUGUCGGGAATT against BCAP31 | inactive: 0.277
GCAUGAACGCGGUCAUGAUTT against RAB40C | inactive: -0.161
CACUUAAACCACCACCUGATT against DNAJC5G | inactive: 0.0656
GGAGCGUGAUGAAUCCAGUTT against INPP5D | inactive: 0.0116
GUUCUUUCCUGGUACGAGATT against SOCS7 | inactive: 0.179
GGCUCAAAGUCCAGCUGAATT against BRUNOL5 | inactive: 0.333
GCUGAUAUGUUUAGUUCAATT against MAP3K7IP3 | inactive: 0.267
